By UniProt entry, the sequences of proteins in these tests, tags left out.
UniProt Q7Z2W4: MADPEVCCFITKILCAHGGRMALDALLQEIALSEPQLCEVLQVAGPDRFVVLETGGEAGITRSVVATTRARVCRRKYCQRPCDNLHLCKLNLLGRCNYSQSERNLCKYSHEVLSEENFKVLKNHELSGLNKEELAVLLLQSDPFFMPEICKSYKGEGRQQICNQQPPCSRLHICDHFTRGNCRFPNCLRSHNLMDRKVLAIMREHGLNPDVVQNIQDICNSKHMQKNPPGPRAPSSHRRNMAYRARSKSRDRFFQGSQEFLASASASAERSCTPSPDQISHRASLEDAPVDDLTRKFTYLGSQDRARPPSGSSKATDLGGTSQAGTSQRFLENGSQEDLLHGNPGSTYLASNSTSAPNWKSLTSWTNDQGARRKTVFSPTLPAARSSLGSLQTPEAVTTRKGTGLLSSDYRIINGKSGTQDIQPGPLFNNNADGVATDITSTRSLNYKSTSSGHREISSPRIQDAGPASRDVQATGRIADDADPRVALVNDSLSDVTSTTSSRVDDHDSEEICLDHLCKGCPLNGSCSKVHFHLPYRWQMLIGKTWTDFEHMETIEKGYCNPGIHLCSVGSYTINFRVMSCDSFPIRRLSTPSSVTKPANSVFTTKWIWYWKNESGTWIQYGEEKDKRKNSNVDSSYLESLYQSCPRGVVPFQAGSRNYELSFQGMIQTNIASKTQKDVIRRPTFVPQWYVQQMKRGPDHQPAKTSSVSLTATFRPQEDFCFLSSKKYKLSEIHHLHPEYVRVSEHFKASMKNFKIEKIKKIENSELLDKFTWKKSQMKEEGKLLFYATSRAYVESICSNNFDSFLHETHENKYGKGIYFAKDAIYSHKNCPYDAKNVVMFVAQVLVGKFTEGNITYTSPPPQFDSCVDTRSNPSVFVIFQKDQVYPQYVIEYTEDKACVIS

According to PMC4441479:

B1: Reticulocalbin 2, EF-hand calcium binding domain (protein, UniProt Q14257-1 23-317)
chain: GKAEELHYPLGERRSDYDREALLGVQEDVDEYVKLGHEEQQKRLQAIIKKIDLDSDGFLTESELSSWIQMSFKHYAMQEAKQQFVEYDKNSDDTVTWDEYNIQMYDRVIDFDENTALDDAEEESFRKLHLKDKKRFEKANQDSGPGLSLEEFIAFEHPEEVDYMTEFVIQEALEEHDKNGDGFVSLEEFLGDYRWDPTANEDPEWILVEKDRFVNDYDKDNDGRLDPQELLPWVVPNNQGIAQEEALHLIDEMDLNGDKKLSEEEILENPDLFLTSEATDYGRQLHDDYFYHDEL
B2: Guanine nucleotide binding protein-like 3 (nucleolar) /nucleostemin (protein, UniProt Q9BVP2-1 1-549)
chain: MKRPKLKKASKRMTCHKRYKIQKKVREHHRKLRKEAKKRGHKKPRKDPGVPNSAPFKEALLREAELRKQRLEELKQQQKLDRQKELEKKRKLETNPDIKPSNVEPMEKEFGLCKTENKAKSGKQNSKKLYCQELKKVIEASDVVLEVLDARDPLGCRCPQVEEAIVQSGQKKLVLILNKSDLVPKENLESWLNYLKKELPTVVFRASTKPKDKGKITKRVKAKKNAAPFRSEVCFGKEGLWKLLGGFQETCSKAIRVGVIGFPNVGKSSIINSLKQEQMCNVGVSMGLTRSMQVVPLDKQITIIDSPSFIVSPLNSSSALALRSPASIEVVKPMEAASAILSQADARQVVLKYTVPGYRNSLEFFTVLAQRRGMHQKGGIPNVEGAAKLLWSEWTGASLAYYCHPPTSWTPPPYFNESIVVDMKSGFNLEELEKNNAQSIRAIKGPHLANSILFQSSGLTNGIIEEKDIHEELPKRKERKQEEREDDKDSDQETVDEEVDENSSGMFAAEETGEALSEETTAGEQSTRSFILDKIIEEDDAYDFSTDYV
B3: NOP2 nucleolar protein (protein, UniProt P46087-1 1-812)
chain: MGRKLDPTKEKRGPGRKARKQKGAETELVRFLPAVSDENSKRLSSRARKRAAKRRLGSVEAPKTNKSPEAKPLPGKLPKGISAGAVQTAGKKGPQSLFNAPRGKKRPAPGSDEEEEEEDSEEDGMVNHGDLWGSEDDADTVDDYGADSNSEDEEEGEALLPIERAARKQKAREAAAGIQWSEEETEDEEEEKEVTPESGPPKVEEADGGLQINVDEEPFVLPPAGEMEQDAQAPDLQRVHKRIQDIVGILRDFGAQREEGRSRSEYLNRLKKDLAIYYSYGDFLLGKLMDLFPLSELVEFLEANEVPRPVTLRTNTLKTRRRDLAQALINRGVNLDPLGKWSKTGLVVYDSSVPIGATPEYLAGHYMLQGASSMLPVMALAPQEHERILDMCCAPGGKTSYMAQLMKNTGVILANDANAERLKSVVGNLHRLGVTNTIISHYDGRQFPKVVGGFDRVLLDAPCSGTGVISKDPAVKTNKDEKDILRCAHLQKELLLSAIDSVNATSKTGGYLVYCTCSITVEENEWVVDYALKKRNVRLVPTGLDFGQEGFTRFRERRFHPSLRSTRRFYPHTHNMDGFFIAKFKKFSNSIPQSQTGNSETATPTNVDLPQVIPKSENSSQPAKKAKGAAKTKQQLQKQQHPKKASFQKLNGISKGADSELSTVPSVTKTQASSSFQDSSQPAGKAEGIREPKVTGKLKQRSPKLQSSKKVAFLRQNAPPKGTDTQTPAVLSPSKTQATLKPKDHHQPLGRAKGVEKQQLPEQPFEKAAFQKQNDTPKGPQPPTVSPIRSSRPPPAKRKKSQSRGNSQLLLS
B4: Zinc finger protein 326, transcript variant 1 (protein, UniProt Q5BKZ1-1 1-582)
chain: MDFEDDYTHSACRNTYQGFNGMDRDYGPGSYGGMDRDYGHGSYGGQRSMDSYLNQSYGMDNHSGGGGGSRFGPYESYDSRSSLGGRDLYRSGYGFNEPEQSRFGGSYGGRFESSYRNSLDSFGGRNQGGSSWEAPYSRSKLRPGFMEDRGRENYSSYSSFSSPHMKPAPVGSRGRGTPAYPESTFGSRNYDAFGGPSTGRGRGRGHMGDFGSIHRPGIVVDYQNKSTNVTVAAARGIKRKMMQPFNKPSGTFIKKPKLAKPMEKISLSKSPTKTDPKNEEEEKRRIEARREKQRRRREKNSEKYGDGYRMAFTCSFCKFRTFEEKDIELHLESSSHQETLDHIQKQTKFDKVVMEFLHECMVNKFKKTSIRKQQTNNQTEVVKIIEKDVMEGVTVDDHMMKVETVHCSACSVYIPALHSSVQQHLKSPDHIKGKQAYKEQIKRESVLTATSILNNPIVKARYERFVKGENPFEIQDHSQDQQIEGDEEDEEKIDEPIEEEEDEDEEEEAEEVGEVEEVEEVEEVREGGIEGEGNIQGVGEGGEVGVVGEVEGVGEVEEVEELEEETAKEEPADFPVEQPEEN
B5: GrpE-like 1, mitochondrial (E. coli) (protein, UniProt Q9HAV7 28-217)
chain: CTATKQKNSGQNLEEDMGQSEQKADPPATEKTLLEEKVKLEEQLKETVEKYKRALADTENLRQRSQKLVEEAKLYGIQAFCKDLLEVADVLEKATQCVPKEEIKDDNPHLKNLYEGLVMTEVQIQKVFTKHGLLKLNPVGAKFDPYEHEALFHTPVEGKEPGTVALVSKVGYKLHGRTLRPALVGVVKEA
B6: 5'-3' exoribonuclease 2 (protein, UniProt Q9H0D6-1 1-950)
chain: MGVPAFFRWLSRKYPSIIVNCVEEKPKECNGVKIPVDASKPNPNDVEFDNLYLDMNGIIHPCTHPEDKPAPKNEDEMMVAIFEYIDRLFSIVRPRRLLYMAIDGVAPRAKMNQQRSRRFRASKEGMEAAVEKQRVREEILAKGGFLPPEEIKERFDSNCITPGTEFMDNLAKCLRYYIADRLNNDPGWKNLTVILSDASAPGEGEHKIMDYIRRQRAQPNHDPNTHHCLCGADADLIMLGLATHEPNFTIIREEFKPNKPKPCGLCNQFGHEVKDCEGLPREKKGKHDELADSLPCAEGEFIFLRLNVLREYLERELTMASLPFTFDVERSIDDWVFMCFFVGNDFLPHLPSLEIRENAIDRLVNIYKNVVHKTGGYLTESGYVNLQRVQMIMLAVGEVEDSIFKKRKDDEDSFRRRQKEKRKRMKRDQPAFTPSGILTPHALGSRNSPGSQVASNPRQAAYEMRMQNNSSPSISPNTSFTSDGSPSPLGGIKRKAEDSDSEPEPEDNVRLWEAGWKQRYYKNKFDVDAADEKFRRKVVQSYVEGLCWVLRYYYQGCASWKWYYPFHYAPFASDFEGIADMPSDFEKGTKPFKPLEQLMGVFPAASGNFLPPSWRKLMSDPDSSIIDFYPEDFAIDLNGKKYAWQGVALLPFVDERRLRAALEEVYPDLTPEETRRNSLGGDVLFVGKHHPLHDFILELYQTGSTEPVEVPPELCHGIQGKFSLDEEAILPDQIVCSPVPMLRDLTQNTVVSINFKDPQFAEDYIFKAVMLPGARKPAAVLKPSDWEKSSNGRQWKPQLGFNRDRRPVHLDQAAFRTLGHVMPRGSGTGIYSNAAPPPVTYQGNLYRPLLRGQAQIPKLMSNMRPQDSWRGPPPLFQQQRFDRGVGAEPLLPWNRMLQTQNAAFQPNQYQMLAGPGGYPPRRDDRGGRQGYPREGRKYPLPPPSGRYNWN
B7: Ribonuclease/angiogenin inhibitor 1 (protein, UniProt P13489 1-461)
chain: MSLDIQSLDIQCEELSDARWAELLPLLQQCQVVRLDDCGLTEARCKDISSALRVNPALAELNLRSNELGDVGVHCVLQGLQTPSCKIQKLSLQNCCLTGAGCGVLSSTLRTLPTLQELHLSDNLLGDAGLQLLCEGLLDPQCRLEKLQLEYCSLSAASCEPLASVLRAKPDFKELTVSNNDINEAGVRVLCQGLKDSPCQLEALKLESCGVTSDNCRDLCGIVASKASLRELALGSNKLGDVGMAELCPGLLHPSSRLRTLWIWECGITAKGCGDLCRVLRAKESLKELSLAGNELGDEGARLLCETLLEPGCQLESLWVKSCSFTAACCSHFSSVLAQNRFLLELQISNNRLEDAGVRELCQGLGQPGSVLRVLWLADCDVSDSSCSSLAATLLANHSLRELDLSNNCLGDAGILQLVESVRQPGCLLEQLVLYDIYWSEEMEDRLQALEKDKPSLRVIS
B8: Endoplasmic reticulum protein 44 (protein, UniProt Q9BS26 30-406)
chain: EITSLDTENIDEILNNADVALVNFYADWCRFSQMLHPIFEEASDVIKEEFPNENQVVFARVDCDQHSDIAQRYRISKYPTLKLFRNGMMMKREYRGQRSVKALADYIRQQKSDPIQEIRDLAEITTLDRSKRNIIGYFEQKDSDNYRVFERVANILHDDCAFLSAFGDVSKPERYSGDNIIYKPPGHSAPDMVYLGAMTNFDVTYNWIQDKCVPLVREITFENGEELTEEGLPFLILFHMKEDTESLEIFQNEVARQLISEKGTINFLHADCDKFRHPLLHIQKTPADCPVIAIDSFRHMYVFGDFKDVLIPGKLKQFVFDLHSGKLHREFHHGPDPTDTAPGEQAQDVASSPPESSFQKLAPSEYRYTLLRDRDEL

What follows are binders tested against ZAP-L-FL (FLAG-tagged ZAP-L) (human) (UniProt Q7Z2W4) (assay: affinity purification with mass spectrometry; ZAP-L-FL or empty vector transfected in 293T; IP with α-FLAG agarose from whole cell lysates (sonication) in the presence or absence of 30 μg/ml RNase; tandem MS; hits: 3 or more peptides, two replicate IPs, not in vector control).

binding, binds:
B1
B2
B3
B4
B5
B6
B7
B8

No constants are given. Whether binding was seen depends on the method and setting. Binding seen in cells or lysates may run through a third protein. These calls come from enrichment with a bait or labelling near it, and not all partners need be listed.
